Results on three compounds are retold here after publication PMC12442009 (ACS Applied Materials & Interfaces, 2025).

One series has as its system NCI/ADR-RES cells. Briefly: Confocal microscopy internalization and colocalization. Particulars: 100 μM.
A short description of series [1]: general procedure: Fmoc solid-phase peptide synthesis; Rink Amide resin (100-200 mesh; 0.64 mmol/g); N-HBTU; PyAOP/DIEA for on-resin cyclization.

For some of these results: Some peptides are written in HELM: one residue between dots, names in brackets for other building blocks, links after the first $.

Regarding `COc1cccc2c1C(=O)c1c(O)c3c(c(O)c1C2=O)C[C@@](O)(C(CO)=NNC(=O)CCCCCN1C(=O)CC(SC[C@H]2NC(=O)[C@H](CCC(N)=O)NC(=O)[C@@H](CCCCN)NC(=O)[C@H](Cc4cn(CCCCC(=O)NCCNc5ccc([N+](=O)[O-])c6nonc56)nn4)NC(=O)[C@@H](Cc4c[nH]c5ccccc45)NC(=O)[C@H](CO)NC(=O)[C@@H](CCCCN)NC(=O)[C@H](CO)NC2=O)C1=O)C[C@@H]3O[C@H]1C[C@H](N)[C@H](O)[C@H](C)O1` (stereo partly shown) [CP1T NBD -DOX], the “Pearson correlation coefficient (PCC), DOX and NBD fluorescence colocalization” value in the series with NCI/ADR-RES cells (2 h) is on record as 0.66 ± 0.01; with NCI/ADR-RES cells (24 h), 0.61±0.11; in the series on NCI/ADR-RES cells (48 h) it was 0.62±0.02. Moreover, in the series on NCI/ADR-RES cells (2 h), the “Pearson correlation coefficient (PCC), NBD and LysoTracker Deep Red colocalization” value was 0.54 ± 0.06.

In turn, “PEPTIDE1{Q.[dC].S.[dK].S.[dW].[Prg].[dK]}$PEPTIDE1,PEPTIDE1,8:R2-1:R1$$$V2.0” registered an isolated yield in series [1] (whole synthesis, overall, scale 400 mg of resin, 0.64 mmol·g-1) of 14%. This compound had an isolated mass in series [1] (whole synthesis, scale 400 mg of resin, 0.64 mmol·g-1) of 34 mg.

“PEPTIDE1{Q.[dCys(MC-DOX)].S.[dK].S.[dW].[Prg(T6)].[dK]}$PEPTIDE1,PEPTIDE1,1:R1-8:R2$$$V2.0” came in with a conjugation yield in series [1] (conjugation step) of 94%.
